Data from PubChem BioAssay AID493014 (National Center for Advancing Translational Sciences (NCATS), 2011).
This is one part of the list. These are further read-outs of the screen, such as a control signal, another cell line or another target. No call is given for them. Most of these compounds were active or inconclusive in the main read-out, so they are no random draw. Words in brackets tell the shape of the fitted curve; partial curves, single points and poor fits give uncertain potencies.

Assay: qHTS Assay to Find Inhibitors of Chronic Active B-Cell Receptor Signaling
Conditions: ABC-DLBCL IkBa-CBG/CBR reporter, luminescence ratio (green luciferase fused to IkBa over red control in TMD8 lymphoma cells), 4 h
In short: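 Concentration-response series (up to 46 uM) were applied to TMD8 dual-reporter cells for 4 h at 37C with doxycycline. Green/red ratio, after filter-overlap correction, defined %Activity; red signal alone was normalised to basal cells and zero luminescence.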

[1] = measured here: CBR red luminescence, cell number
[2] = measured here: IkBa-CBG green luminescence

Row | Structure (SMILES) | AC50 [1] | AC50 [2]
1 | CNC(=S)N1N=C(c2ccc(Br)cc2)CC1c1ccc(Br)cc1 (centres undefined) | 23.1 µM [rising, single point] | –
2 | Cc1cc(=O)n(Cc2ccccc2)c2c(C)cccc12 | 0.316 µM [rising, full curve, poor fit] | –
3 | COc1ccc(-c2cc(C(=O)NC(C)c3ccccc3)c3cc(C(C)C)ccc3n2)cc1 (centres undefined) | 4.47 µM [rising, partial curve, poor fit] | –
4 | CCOC(=O)c1c(N)n(CCOC(=O)c2cccs2)c2nc3ccccc3nc12 | 22.4 µM [falling, single point] | –
5 | O=C(CN1C(=O)/C(=C/c2ccccc2)SC1=S)NC1C=CS(=O)(=O)C1 (centres undefined) | 12.6 µM [falling, partial curve] | –
6 | CN1C(CC(=O)Nc2ccc(Br)cc2)c2ccccc2CC1(C)C (centres undefined) | 11.2 µM [falling, single point] | –
7 | CC1C=CCC2C(=O)N(c3cccc(C(=O)Nc4ccc(F)cc4)c3)C(=O)C12 (centres undefined) | 35.5 µM [falling, single point] | –
8 | Cc1ccn2c(c1)nc(=S)n2C(=O)c1ccco1 | 0.651 µM [rising, full curve] | –
9 | O=C1CN(CC(=O)N2CCOCC2)c2ccccc2O1 | 3.16 µM [falling, partial curve] | –
10 | COc1ccc(S(=O)(=O)n2nc(C)cc2C)c(C)c1C | 6.51 µM [rising, single point] | –
11 | COc1cccc2cc(/C(=N/O)c3ccc(Br)cc3)oc12 | 25.1 µM [rising, single point] | –
12 | CCOC(=O)Nc1ccc2c(c1)N(C(=O)CCN(CC)CC)c1ccccc1CC2 | 8.91 µM [falling, partial curve] | –
13 | CCOC(=O)C1=C(c2ccccc2)N(C)C(=O)NC1c1ccc(OC(F)F)c(OC)c1 (centres undefined) | 22.4 µM [falling, single point] | –
14 | CCOc1ccccc1NC(=O)Cn1nnc(-c2ccc(OCC)c(OCC)c2)n1 | 23.1 µM [falling, single point] | –
15 | Cn1cnc2c1c(=O)n(Cc1ccccc1)c(=O)n2C | 5.17 µM [falling, partial curve, poor fit] | 2.06 µM [rising, partial curve, poor fit]
16 | Cc1nn(S(=O)(=O)N2CCCCC2)c(C)c1Br | 4.11 µM [rising, single point] | –
17 | COc1ccccc1C1(O)CCN(CC(=O)Nc2nc(-c3ccccc3)cs2)CC1 | 2 µM [rising, partial curve, poor fit] | –
18 | CC1(C)CC(=O)C=C(Nc2cc(-c3ccccc3)[nH]n2)C1 | 14.1 µM [falling, partial curve] | –
19 | Cc1occc1C(=O)N/N=C/C(Br)=C\c1ccccc1 | 10 µM [falling, partial curve] | –
20 | CCc1c(C)[nH]n(-c2nc(-c3ccccc3)cs2)c1=O | 0.794 µM [rising, full curve, poor fit] | –
21 | COCCN(CC(=O)Nc1cccc(C)c1C)C(=O)CN1C(=O)NC2(CCCCC2)C1=O | 32.6 µM [rising, single point] | –

Individual results from above:
Under AC50 [1], COc1ccccc1C1(O)CCN(CC(=O)Nc2nc(-c3ccccc3)cs2)CC1 shows 2 µM [rising, partial curve, poor fit]
Under AC50 [1], Cc1cc(=O)n(Cc2ccccc2)c2c(C)cccc12 shows 0.316 µM [rising, full curve, poor fit]

(further entries)

Row | Structure (SMILES) | AC50 [1] | AC50 [2]
22 | CSc1nc2ccc(NC(=O)CSc3nnc(N)s3)cc2s1 | 32.6 µM [falling, single point] | –
23 | COc1cc(OC)c2c(-c3cccc(-c4ccc(N(C)C)cc4)c3)cc(=O)oc2c1 | 1.3 µM [rising, full curve] | 1.84 µM [falling, full curve]
24 | O=C(CSc1n[nH]c(-c2ccccc2)n1)c1ccccc1 | 23.1 µM [falling, partial curve] | –
25 | O=C(NNC(=O)c1cccc(O)c1)Nc1ccc([N+](=O)[O-])cc1 | 12.6 µM [falling, partial curve] | –
26 | COc1cc(C(=O)Nc2ccc3c(c2)OCCO3)ccc1OC(F)F | 25.1 µM [falling, single point] | –
27 | Cn1nc(-c2ccccc2)c2nc3ccccc3nc21 | 5.62 µM [rising, single point] | –
28 | COc1cc(/C=N/Nc2nncn2/N=C/c2ccc(O)c(OC)c2)ccc1O | 35.5 µM [falling, single point] | –
29 | C=C(C)c1cccc(C(C)(C)NC(=O)NC2CCN(Cc3ccccc3)CC2)c1 | 17.8 µM [falling, partial curve] | –
30 | Cc1ccc(S(=O)(=O)N/N=C/c2ccc(OCC(=O)Nc3ccccc3Cl)cc2)cc1 | 35.5 µM [falling, partial curve, poor fit] | –
31 | CCOc1ccc(S(=O)(=O)n2ccnc2C)cc1 | 0.0891 µM [rising, full curve, poor fit] | –
32 | O=C(Nc1ccc(Cl)cc1)c1csc(-c2ccccc2)n1 | 29.1 µM [falling, single point] | –
33 | Cc1cc(C)n2cc(-c3ccc(Cl)cc3)c(C(=O)O)c2n1 | 1 µM [falling, full curve] | –
34 | CN(C)c1cc(N/N=C/c2ccccc2C(F)(F)F)nc(N(C)C)n1 | 0.708 µM [rising, full curve, poor fit] | –
35 | CCOC(=O)CN1C(=O)CC(c2ccc([N+](=O)[O-])cc2)C1=O (centres undefined) | 35.5 µM [rising, single point] | –
36 | N#CC1=C(N)SC(N)=C(C#N)C1c1c(Cl)cccc1Cl | 35.5 µM [falling, single point] | –
37 | COc1ccc2cc(C(=O)NCC(=O)O)sc(=O)c2c1OC | 0.224 µM [falling, full curve, poor fit] | –
38 | COC(=O)c1ccc2c(c1)SC1=C(CCCC1=O)N2 | 4.11 µM [rising, full curve, poor fit] | –
39 | CCOC(=O)NC(Nc1nnc(SCC)s1)(C(F)(F)F)C(F)(F)F | 14.6 µM [rising, single point] | –
40 | CC(=O)c1ccc(-n2c(CCC(=O)O)ccc2-c2ccccc2)cc1 | 25.1 µM [rising, single point] | –
41 | Cc1ccc2[nH]c(=O)c(CN3CCCCC3)c(-c3ccccc3)c2c1 | – | 11.2 µM [falling, partial curve, poor fit]
42 | Cc1ccc(OCC(=O)NCc2ccco2)cc1C | 20.6 µM [falling, single point] | –

Looked up by compound from above, 2 records:
Row | Structure (SMILES) | AC50 [1] | AC50 [2]
19 | Cc1occc1C(=O)N/N=C/C(Br)=C\c1ccccc1 | 10 µM [falling, partial curve] | –
25 | O=C(NNC(=O)c1cccc(O)c1)Nc1ccc([N+](=O)[O-])cc1 | 12.6 µM [falling, partial curve] | –
